The supplement of paper PMC12067093, “Discovery and optimisation of a covalent ligand for TRIM25 and its application to targeted protein ubiquitination” (Chemical Science, 2025)
The list shows a part of the results.

Sequences of proteins named here, by UniProt entry; tags and fusion partners are left off. A change or cut given only in a name is not applied to a line headed by its entry.
UniProt Q96PV6, whole entry, looked up: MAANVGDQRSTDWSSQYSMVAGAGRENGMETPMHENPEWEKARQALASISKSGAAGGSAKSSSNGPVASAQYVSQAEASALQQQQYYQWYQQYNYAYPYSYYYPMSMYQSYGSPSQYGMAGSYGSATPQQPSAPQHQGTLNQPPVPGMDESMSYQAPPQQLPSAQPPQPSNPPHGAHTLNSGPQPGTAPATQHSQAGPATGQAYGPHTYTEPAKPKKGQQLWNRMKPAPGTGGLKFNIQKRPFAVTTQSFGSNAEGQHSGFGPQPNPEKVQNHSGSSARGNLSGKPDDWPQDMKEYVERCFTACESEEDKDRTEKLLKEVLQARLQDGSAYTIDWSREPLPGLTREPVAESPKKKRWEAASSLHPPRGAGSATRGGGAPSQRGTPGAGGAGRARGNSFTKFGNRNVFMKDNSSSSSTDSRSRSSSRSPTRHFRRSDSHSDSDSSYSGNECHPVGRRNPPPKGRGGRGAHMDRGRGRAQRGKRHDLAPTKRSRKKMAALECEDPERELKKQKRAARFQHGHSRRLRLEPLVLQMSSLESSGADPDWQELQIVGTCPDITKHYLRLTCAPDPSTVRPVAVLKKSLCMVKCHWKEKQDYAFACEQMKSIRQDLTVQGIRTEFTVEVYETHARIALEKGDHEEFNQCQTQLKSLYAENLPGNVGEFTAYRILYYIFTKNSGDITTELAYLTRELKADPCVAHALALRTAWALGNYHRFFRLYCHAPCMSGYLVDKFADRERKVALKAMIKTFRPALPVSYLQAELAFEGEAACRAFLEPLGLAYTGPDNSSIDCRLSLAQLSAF
UniProt P48449: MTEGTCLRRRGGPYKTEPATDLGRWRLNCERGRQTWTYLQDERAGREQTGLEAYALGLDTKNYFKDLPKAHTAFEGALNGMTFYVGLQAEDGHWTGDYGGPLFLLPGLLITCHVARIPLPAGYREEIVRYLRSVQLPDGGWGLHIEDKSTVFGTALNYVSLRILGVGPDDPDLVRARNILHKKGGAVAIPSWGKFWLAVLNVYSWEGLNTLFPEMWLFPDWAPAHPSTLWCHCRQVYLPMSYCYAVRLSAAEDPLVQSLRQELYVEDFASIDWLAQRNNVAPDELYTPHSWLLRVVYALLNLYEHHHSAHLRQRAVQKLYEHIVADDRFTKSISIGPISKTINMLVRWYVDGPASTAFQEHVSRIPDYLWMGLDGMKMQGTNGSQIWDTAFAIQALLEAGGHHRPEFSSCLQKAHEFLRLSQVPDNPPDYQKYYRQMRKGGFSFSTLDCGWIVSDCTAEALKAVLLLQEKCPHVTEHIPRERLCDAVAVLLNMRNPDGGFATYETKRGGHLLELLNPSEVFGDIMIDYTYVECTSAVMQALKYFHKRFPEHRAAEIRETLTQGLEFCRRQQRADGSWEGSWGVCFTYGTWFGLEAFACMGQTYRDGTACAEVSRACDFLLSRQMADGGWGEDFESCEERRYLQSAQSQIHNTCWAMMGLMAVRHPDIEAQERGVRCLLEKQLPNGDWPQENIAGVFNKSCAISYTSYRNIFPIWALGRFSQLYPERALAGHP
UniProt P48059, whole entry, looked up: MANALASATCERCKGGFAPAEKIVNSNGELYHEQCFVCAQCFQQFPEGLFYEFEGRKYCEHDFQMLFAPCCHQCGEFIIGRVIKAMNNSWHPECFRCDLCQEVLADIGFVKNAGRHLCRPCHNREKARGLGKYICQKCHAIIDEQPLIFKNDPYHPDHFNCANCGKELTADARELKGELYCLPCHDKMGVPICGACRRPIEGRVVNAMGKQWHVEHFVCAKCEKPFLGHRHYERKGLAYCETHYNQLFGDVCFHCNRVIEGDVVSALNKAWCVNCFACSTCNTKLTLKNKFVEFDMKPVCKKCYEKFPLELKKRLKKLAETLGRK
UniProt Q12907: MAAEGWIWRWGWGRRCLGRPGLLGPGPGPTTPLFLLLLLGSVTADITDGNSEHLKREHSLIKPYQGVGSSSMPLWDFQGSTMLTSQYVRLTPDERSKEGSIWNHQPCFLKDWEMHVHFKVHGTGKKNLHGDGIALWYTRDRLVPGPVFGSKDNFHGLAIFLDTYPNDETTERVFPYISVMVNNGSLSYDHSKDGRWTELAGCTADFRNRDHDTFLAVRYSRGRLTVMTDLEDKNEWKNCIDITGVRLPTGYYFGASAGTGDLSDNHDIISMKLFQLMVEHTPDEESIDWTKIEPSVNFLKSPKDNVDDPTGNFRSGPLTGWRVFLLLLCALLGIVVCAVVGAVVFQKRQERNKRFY
UniProt P49916: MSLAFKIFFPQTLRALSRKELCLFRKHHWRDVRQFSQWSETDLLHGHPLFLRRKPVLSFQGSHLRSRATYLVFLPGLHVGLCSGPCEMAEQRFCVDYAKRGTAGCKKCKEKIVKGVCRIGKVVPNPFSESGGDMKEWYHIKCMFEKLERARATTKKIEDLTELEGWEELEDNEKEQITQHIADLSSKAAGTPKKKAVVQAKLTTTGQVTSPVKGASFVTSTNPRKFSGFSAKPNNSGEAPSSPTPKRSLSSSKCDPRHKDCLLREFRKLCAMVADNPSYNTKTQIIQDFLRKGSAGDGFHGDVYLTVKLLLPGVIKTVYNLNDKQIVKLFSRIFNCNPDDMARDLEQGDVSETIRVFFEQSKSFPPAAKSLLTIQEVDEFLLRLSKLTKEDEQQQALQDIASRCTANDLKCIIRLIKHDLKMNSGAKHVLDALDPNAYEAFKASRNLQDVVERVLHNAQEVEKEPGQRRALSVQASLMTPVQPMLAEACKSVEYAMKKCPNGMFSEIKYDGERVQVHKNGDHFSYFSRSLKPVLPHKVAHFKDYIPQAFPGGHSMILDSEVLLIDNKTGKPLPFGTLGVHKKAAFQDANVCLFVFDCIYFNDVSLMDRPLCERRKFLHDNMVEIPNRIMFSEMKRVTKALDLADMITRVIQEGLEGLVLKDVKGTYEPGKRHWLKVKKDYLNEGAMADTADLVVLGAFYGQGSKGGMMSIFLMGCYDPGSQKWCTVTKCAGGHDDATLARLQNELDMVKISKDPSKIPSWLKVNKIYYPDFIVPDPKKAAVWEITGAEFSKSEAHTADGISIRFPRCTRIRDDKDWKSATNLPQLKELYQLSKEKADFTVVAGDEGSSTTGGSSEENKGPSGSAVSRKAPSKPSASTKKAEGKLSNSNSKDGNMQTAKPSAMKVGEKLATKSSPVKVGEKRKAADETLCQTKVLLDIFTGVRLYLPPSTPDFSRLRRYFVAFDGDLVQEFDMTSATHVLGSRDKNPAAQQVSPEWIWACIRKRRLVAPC
UniProt Q9UHB6: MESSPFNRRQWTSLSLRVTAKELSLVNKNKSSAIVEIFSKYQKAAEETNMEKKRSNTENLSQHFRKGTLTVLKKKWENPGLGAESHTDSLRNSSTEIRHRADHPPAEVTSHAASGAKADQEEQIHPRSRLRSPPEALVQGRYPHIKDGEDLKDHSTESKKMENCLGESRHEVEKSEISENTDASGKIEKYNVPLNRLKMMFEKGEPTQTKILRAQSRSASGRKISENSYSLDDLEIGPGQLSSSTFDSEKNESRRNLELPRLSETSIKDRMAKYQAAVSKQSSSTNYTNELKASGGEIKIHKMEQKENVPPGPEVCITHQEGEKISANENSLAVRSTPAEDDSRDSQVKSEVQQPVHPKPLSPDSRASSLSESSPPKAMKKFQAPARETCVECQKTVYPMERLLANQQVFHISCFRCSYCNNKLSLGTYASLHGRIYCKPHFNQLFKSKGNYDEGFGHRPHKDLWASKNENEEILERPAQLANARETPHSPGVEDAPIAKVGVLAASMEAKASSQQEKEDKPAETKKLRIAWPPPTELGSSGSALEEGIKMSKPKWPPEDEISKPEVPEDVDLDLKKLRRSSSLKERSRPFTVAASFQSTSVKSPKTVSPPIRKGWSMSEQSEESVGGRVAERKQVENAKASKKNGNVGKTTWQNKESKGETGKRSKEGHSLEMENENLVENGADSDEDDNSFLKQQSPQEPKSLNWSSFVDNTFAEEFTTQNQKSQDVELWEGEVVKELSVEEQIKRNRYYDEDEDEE
UniProt Q5TKA1: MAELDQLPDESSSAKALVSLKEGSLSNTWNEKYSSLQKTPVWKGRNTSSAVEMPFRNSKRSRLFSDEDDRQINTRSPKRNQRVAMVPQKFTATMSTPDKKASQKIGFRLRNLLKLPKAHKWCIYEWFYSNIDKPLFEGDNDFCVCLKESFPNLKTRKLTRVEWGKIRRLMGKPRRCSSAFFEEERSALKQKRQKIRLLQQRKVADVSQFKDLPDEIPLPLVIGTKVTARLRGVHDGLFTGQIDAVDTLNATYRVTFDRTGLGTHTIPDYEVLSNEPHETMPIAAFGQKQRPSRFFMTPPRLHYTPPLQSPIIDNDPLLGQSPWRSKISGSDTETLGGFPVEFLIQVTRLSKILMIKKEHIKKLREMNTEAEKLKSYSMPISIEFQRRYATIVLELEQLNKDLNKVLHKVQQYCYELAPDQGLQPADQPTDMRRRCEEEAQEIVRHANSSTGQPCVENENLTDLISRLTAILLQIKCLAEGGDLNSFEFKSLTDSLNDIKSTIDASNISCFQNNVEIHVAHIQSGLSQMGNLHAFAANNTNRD
UniProt Q96II8: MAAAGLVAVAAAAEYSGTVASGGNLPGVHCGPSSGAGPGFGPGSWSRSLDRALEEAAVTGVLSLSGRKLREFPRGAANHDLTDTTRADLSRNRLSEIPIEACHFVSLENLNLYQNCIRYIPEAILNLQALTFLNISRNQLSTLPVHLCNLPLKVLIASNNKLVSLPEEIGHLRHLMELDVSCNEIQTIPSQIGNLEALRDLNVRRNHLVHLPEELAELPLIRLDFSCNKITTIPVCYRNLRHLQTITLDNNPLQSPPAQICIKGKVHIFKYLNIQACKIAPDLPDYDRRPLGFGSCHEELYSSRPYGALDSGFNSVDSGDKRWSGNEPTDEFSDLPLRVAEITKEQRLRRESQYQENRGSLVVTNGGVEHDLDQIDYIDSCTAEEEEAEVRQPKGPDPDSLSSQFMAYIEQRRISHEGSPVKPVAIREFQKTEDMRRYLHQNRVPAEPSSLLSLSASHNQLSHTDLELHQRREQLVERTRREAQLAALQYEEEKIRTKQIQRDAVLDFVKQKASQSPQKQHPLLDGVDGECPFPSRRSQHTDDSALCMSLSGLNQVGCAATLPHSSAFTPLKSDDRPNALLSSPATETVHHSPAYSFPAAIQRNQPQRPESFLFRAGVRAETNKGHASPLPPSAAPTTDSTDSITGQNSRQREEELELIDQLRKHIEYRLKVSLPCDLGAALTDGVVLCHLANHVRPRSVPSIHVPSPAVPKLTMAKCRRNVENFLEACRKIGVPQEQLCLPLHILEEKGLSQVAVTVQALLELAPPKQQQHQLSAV
UniProt Q8NC56: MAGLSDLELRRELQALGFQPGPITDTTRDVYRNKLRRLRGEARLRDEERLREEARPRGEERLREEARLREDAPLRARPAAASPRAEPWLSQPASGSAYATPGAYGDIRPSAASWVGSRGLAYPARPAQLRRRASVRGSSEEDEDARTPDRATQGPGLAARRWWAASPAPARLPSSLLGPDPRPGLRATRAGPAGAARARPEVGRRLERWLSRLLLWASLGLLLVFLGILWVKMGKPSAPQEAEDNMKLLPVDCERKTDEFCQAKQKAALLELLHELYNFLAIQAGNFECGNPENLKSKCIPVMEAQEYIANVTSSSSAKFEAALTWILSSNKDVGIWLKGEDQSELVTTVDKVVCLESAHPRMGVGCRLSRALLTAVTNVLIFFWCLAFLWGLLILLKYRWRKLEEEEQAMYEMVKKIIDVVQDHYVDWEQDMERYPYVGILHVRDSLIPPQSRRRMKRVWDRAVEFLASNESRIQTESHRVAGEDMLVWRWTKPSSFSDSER
UniProt O95202: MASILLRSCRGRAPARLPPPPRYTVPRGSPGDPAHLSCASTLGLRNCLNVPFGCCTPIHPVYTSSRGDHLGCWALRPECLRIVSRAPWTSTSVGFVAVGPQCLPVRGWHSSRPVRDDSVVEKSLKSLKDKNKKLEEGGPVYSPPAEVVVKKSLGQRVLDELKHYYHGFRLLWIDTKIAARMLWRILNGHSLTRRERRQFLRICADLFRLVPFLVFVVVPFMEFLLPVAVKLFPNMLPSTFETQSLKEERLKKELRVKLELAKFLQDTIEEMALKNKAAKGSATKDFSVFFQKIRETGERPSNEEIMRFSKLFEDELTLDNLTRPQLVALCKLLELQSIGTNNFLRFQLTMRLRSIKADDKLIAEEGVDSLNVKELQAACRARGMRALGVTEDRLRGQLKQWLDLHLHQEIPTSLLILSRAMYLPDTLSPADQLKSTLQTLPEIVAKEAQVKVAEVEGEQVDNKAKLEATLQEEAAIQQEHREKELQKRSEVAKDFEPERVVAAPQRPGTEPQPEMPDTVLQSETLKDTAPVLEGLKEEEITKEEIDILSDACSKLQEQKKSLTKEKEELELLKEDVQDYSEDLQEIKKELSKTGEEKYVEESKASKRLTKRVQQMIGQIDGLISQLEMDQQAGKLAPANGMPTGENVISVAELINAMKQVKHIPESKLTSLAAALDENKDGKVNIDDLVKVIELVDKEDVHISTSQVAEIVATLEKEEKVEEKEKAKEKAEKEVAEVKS

Compound: CC1Cc2ccccc2N1C(=O)C1CCCN(C1)C(=O)CCl (mixture of isomers) [TRIM25 ligand 11 (diastereomer mixture)]
Test: probe-labelled cysteine peptide fold change vs DMSO (competition) (log2 fold change); higher = less target engagement (more negative = stronger competition)
Details: THP-1, incubation time: 4 h
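Note: competitive chemoproteomic profiling in live THP-1 cells with an iodoacetamide desthiobiotin (IA-DTB) probe, comparing probe-labelled peptide intensities in compound-treated cells against DMSO-treated controls.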

| Target | probe-labelled cysteine peptide fold change (10 µM) | probe-labelled cysteine peptide fold change (50 µM) |
| --- | --- | --- |
| LRRC58_Q96CX6_131_SLQVLNLSGNCFQEVPASLLELR (UniProt Q96CX6) | -0.0261 | -0.0833 |
| LRBA_P50851_2820_QLFAYPGCDAGIR (UniProt P50851) | 0.149 | 0.144 |
| LIG1_P18858_846_CADLSLSPIYPAAR (UniProt P18858) | -0.027 | 0.233 |
| LRRC40_Q9H9A6_264_FLPEFPSCSLLK (UniProt Q9H9A6) | 0.0423 | -0.114 |
| LIMK1_P53667_466_DLNSHNCLVR (UniProt P53667) | 0.0104 | 0.0471 |
| LPXN_O60711_155_GHCASCQK (UniProt O60711) | 0.00581 | 0.145 |
| LDHD_Q86WU2_63_CEPPDAVVWPQNVEQVSR (UniProt Q86WU2) | -0.294 | -0.421 |
| LPXN_O60711_332_GTLCHGCGQPITGR (UniProt O60711) | 0.065 | 0.149 |
| LENG8_Q96PV6_695_ADPCVAHALALR (UniProt Q96PV6) | -0.0372 | 0.251 |
| LONP1_P36776_909_RAGVTCIVLPAENK (UniProt P36776) | 0.213 | 0.226 |
| LRPPRC_P42704_130_SCGSLLPELK (UniProt P42704) | 0.166 | 0.0887 |
| LRRC47_Q8N1G4_190_PGALPLLSELAAADNCLR (UniProt Q8N1G4) | -0.132 | -0.0541 |
| LPP_Q93052_566_DFHVHCYR (UniProt Q93052) | 0.0515 | 0.134 |
| LSS_P48449_484_LCDAVAVLLNMR (UniProt P48449) | -0.0996 | -0.128 |
| LIMS1_P48059_252_GLAYCETHYNQLFGDVCFHCNR (UniProt P48059) | 0.00679 | 0.0944 |
| LRRC47_Q8N1G4_249_MVSGCQTR (UniProt Q8N1G4) | -0.124 | -0.256 |
| LMAN2_Q12907_239_NCIDITGVR (UniProt Q12907) | -0.0104 | 0.244 |
| LDLR_P01130_377+379_CQCEEGFQLDPHTK (UniProt P01130) | 0.0826 | -0.0881 |
| LPCAT1_Q8NF37_330_LPADTCLLEFAR (UniProt Q8NF37) | 0.0476 | 0.018 |
| LPCAT4_Q643R3_304_VMAQALGIPATECEFVGSLPVIVVGR (UniProt Q643R3) | -0.164 | 0.393 |
| LRRC47_Q8N1G4_60_LFTLPLLHYLEVSGCGSLR (UniProt Q8N1G4) | -0.101 | 0.0441 |
| LPCAT2_Q7L5N7_326_NLMAEALGIPVTDHTYEDCR (UniProt Q7L5N7) | 0.176 | 0.185 |

| Target | probe-labelled cysteine peptide fold change (10 µM) | probe-labelled cysteine peptide fold change (50 µM) |
| --- | --- | --- |
| LIG3_P49916_724_WCTVTK (UniProt P49916) | -0.0602 | 0.143 |
| LIMA1_Q9UHB6_316_ENVPPGPEVCITHQEGEK (UniProt Q9UHB6) | -0.0648 | -0.075 |
| LRBA_P50851_2740_TLEGPENCLKPK (UniProt P50851) | 0.0603 | -0.0266 |
| LLGL1_Q15334_1059_NLAEDEAHACAILIK (UniProt Q15334) | 0.0189 | -0.322 |
| LIN9_Q5TKA1_435_RCEEEAQEIVR (UniProt Q5TKA1) | -0.0311 | -0.145 |
| LRRC40_Q9H9A6_227_HLDCNSNLLETIPPELAGMESLELLYLRR (UniProt Q9H9A6) | -0.138 | -0.0108 |
| LGALS9_O00182_259_FHINLCSGNHIAFHLNPR (UniProt O00182) | -0.18 | -0.0929 |
| LPP_Q93052_499+502_AYHPHCFTCVMCHR (UniProt Q93052) | 0.0338 | 0.162 |
| LRCH1_Q9Y2L9_197_QLMELDVSCNEITALPQQIGQLK (UniProt Q9Y2L9) | -0.0522 | -0.0716 |
| LRRC59_Q96AG4_131_VAGDCLDEK (UniProt Q96AG4) | 0.0169 | -0.0381 |
| LRCH3_Q96II8_102_LSEIPIEACHFVSLENLNLYQNCIR (UniProt Q96II8) | -0.197 | 0.0515 |
| LMAN2L_Q9H0V9_200_DGRPTELGGCTAIVR (UniProt Q9H0V9) | 0.0851 | 0.019 |
| LPXN_O60711_237_VLTAMNQTWHPEHFFCSHCGEVFGAEGFHEK (UniProt O60711) | 0.0815 | 0.126 |
| LGALS1_P09382_3_ACGLVASNLNLKPGECLR (UniProt P09382) | -0.0986 | -0.246 |
| LEMD2_Q8NC56_253_LLPVDCER (UniProt Q8NC56) | 0.0793 | 0.082 |
| LIPE_Q05469_382_CCLAHLLHK (UniProt Q05469) | -0.015 | 0.0688 |
| LIG3_P49916_499_KCPNGMFSEIKYDGER (UniProt P49916) | 0.24 | 0.59 |
| LRP1_Q07954_2404_CEYDGSHR (UniProt Q07954) | 0.089 | 0.0894 |
| LMAN2_Q12907_107_EGSIWNHQPCFLK (UniProt Q12907) | 0.0524 | -0.0598 |
| LRCH3_Q96II8_277_YLNIQACK (UniProt Q96II8) | 0.0779 | -0.276 |
| LETM1_O95202_379_ELQAACR (UniProt O95202) | -0.0504 | 0.0933 |
| LIMA1_Q9UHB6_164_MENCLGESR (UniProt Q9UHB6) | -0.0922 | 0.185 |

| Target | probe-labelled cysteine peptide fold change (10 µM) | probe-labelled cysteine peptide fold change (50 µM) |
| --- | --- | --- |
| LRRFIP1_Q32MZ4_334_DCVDIEVFPAGENTEDQK (UniProt Q32MZ4) | 0.0101 | -0.138 |
| LSM12_Q3MHD2_17_AAPPGEYFSVGSQVSCR (UniProt Q3MHD2) | -0.0369 | 0.0976 |
| LRPPRC_P42704_952_LFECDRDQMYYNLLK (UniProt P42704) | 0.0136 | -0.0249 |
| LRRC42_Q9Y546_212_DNCLSDAGVR (UniProt Q9Y546) | 0.0519 | 0.013 |
| LIMD1_Q9UGP4_148_HGSQDCGSR (UniProt Q9UGP4) | 0.11 | -0.456 |
| LRRFIP1_Q32MZ4_726_SEDADRCTLPEHESPSQDISDACEAESTER (UniProt Q32MZ4) | 0.0357 | -0.442 |
| LEMD2_Q8NC56_355_VVCLESAHPR (UniProt Q8NC56) | 0.00883 | -0.113 |
| LRSAM1_Q6UWE0_193_EVCGAGTAAILQFLCK (UniProt Q6UWE0) | 0.0311 | -0.0122 |
| LGALS1_P09382_3+17_ACGLVASNLNLKPGECLR (UniProt P09382) | -0.114 | -0.236 |
| LETM1_O95202_552_DTAPVLEGLKEEEITKEEIDILSDACSK (UniProt O95202) | -0.126 | 0.018 |
| LRRFIP1_Q32MZ4_456_CMVEVPQELETSTGHSLEK (UniProt Q32MZ4) | -0.102 | -0.555 |
| LST1_O00453_90_ADYACIAENKPT (UniProt O00453) | -0.052 | -0.071 |
| LGALS1_P09382_17_ACGLVASNLNLKPGECLR (UniProt P09382) | -0.0469 | -0.0291 |
| LIG4_P49917_20_AASQTSQTVASHVPFADLCSTLER (UniProt P49917) | -0.176 | 0.168 |
| LRR1_Q96L50_91_LKEPPVDICLSK (UniProt Q96L50) | -0.00206 | 0.0649 |
| LONP2_Q86WA8_405_IALGGVCDQSDIR (UniProt Q86WA8) | 0.166 | 0.188 |
| LIMS1_P48059_240+252_GLAYCETHYNQLFGDVCFHCNR (UniProt P48059) | 0.163 | 0.197 |
| LRCH4_O75427_283_GSALGDLAPSRPPSFSPCPAEDLFPGHR (UniProt O75427) | 0.0092 | -0.436 |
| LRRK2_Q5S007_1187_FSCIPEAILNLPHLR (UniProt Q5S007) | -0.0746 | -0.134 |
| LIN9_Q5TKA1_176_CSSAFFEEER (UniProt Q5TKA1) | -0.103 | -0.126 |
| LIN9_Q5TKA1_435_CEEEAQEIVR (UniProt Q5TKA1) | 0.209 | 0.311 |
| LMAN1_P49257_230_NDYEFCAK (UniProt P49257) | 0.433 | 0.345 |

| Target | probe-labelled cysteine peptide fold change (10 µM) | probe-labelled cysteine peptide fold change (50 µM) |
| --- | --- | --- |
| LILRB4_Q8NHJ6_330_SSPAADVQGENFCAAVK (UniProt Q8NHJ6) | 0.0572 | -0.155 |
| LMNA_P02545_522_AQNTWGCGNSLR (UniProt P02545) | -0.104 | -0.14 |
| LGALS3BP_Q08380_561_STSSFPCPAGHFNGFR (UniProt Q08380) | -0.133 | -0.0375 |
| LMNB1_P20700_198_CQSLTEDLEFRK (UniProt P20700) | -0.05 | -0.0171 |
| LDLR_P01130_377_CQCEEGFQLDPHTK (UniProt P01130) | 0.0779 | 0.0753 |
| LSS_P48449_636_QMADGGWGEDFESCEERR (UniProt P48449) | -0.0668 | -0.1 |
| LRP1_Q07954_3021_GGDPHSCK (UniProt Q07954) | 0.15 | 0.116 |
| LRRC42_Q9Y546_151+154_FTEAYGSLVLCSLCLR (UniProt Q9Y546) | -0.374 | 0.0723 |
| LIMS1_P48059_240+252+255_GLAYCETHYNQLFGDVCFHCNR (UniProt P48059) | -0.0958 | -0.0831 |
| LGALS1_P09382_61_FNAHGDANTIVCNSKDGGAWGTEQR (UniProt P09382) | -0.522 | -0.174 |
| LRCH1_Q9Y2L9_292_YLSIQACQIK (UniProt Q9Y2L9) | -0.0736 | 0.0679 |
| LRRC14_Q15048_109_LHTSEPGASTQPLCR (UniProt Q15048) | 0.131 | -0.177 |
| LIMS1_P48059_193+196_MGVPICGACR (UniProt P48059) | -0.089 | -0.114 |
| LIG3_P49916_729_CAGGHDDATLAR (UniProt P49916) | 0.0492 | 0.0111 |
| LENG8_Q96PV6_600_EKQDYAFACEQMK (UniProt Q96PV6) | -0.127 | 0.0118 |
| LRPPRC_P42704_413_EVQMHSFPLQFTLHCALLANK (UniProt P42704) | -0.0836 | -0.0858 |
| LDHD_Q86WU2_462_ALALHGTCTGEHGIGMGK (UniProt Q86WU2) | -0.00991 | -0.0249 |
| LLGL2_Q6P1M3_280_SLVPYGPFPCK (UniProt Q6P1M3) | 0.0313 | 0.0411 |
| LRRC8A_Q8IWT6_776_GNRLECLPVELGECPLLK (UniProt Q8IWT6) | -0.0935 | 0.00841 |
